No constants are given. Whether binding was seen depends on the method and setting.
Target: PgiDAH7PS (separated DAH7PS domain of PgiDAH7PS-CM) (Porphyromonas gingivalis) (UniProt B2RJM7)
Assay: SEC; analytical SEC on ENrich SEC 650 calibrated with mass standards; 50 mM BTP pH 7.4, 4°C, protein loaded at 1 mg/mL, 0.2 mL/min; apparent mass compared with theoretical monomer mass; both purified

B1: PgiDAH7PS (separated DAH7PS domain of PgiDAH7PS-CM) (domain or fragment, UniProt B2RJM7 1-258)
chain: MKYCDFTPLPLPSEPNTTVIAGPCSAESEEQIMTTARALRDEAGIRIFRAGLWKPRTLPGCFEGVGETGLPWLVRVQDELDMLATTEVATREHVEQAMQAGIRILWLGARTTSNPFAVQEIADTIGKDESVIVLVKNPISPDLDLWTGALERLRQSGVRQIGAIHRGFSTYATKTFRNPPHWQIPFDLKRRFPSLTILCDPSHITGQRDRIESVSQQAMEMNFDGLIIESHCCPDKALSDASQQITPTVLAQILRRLR
In the case of B1, the binding is reported as “no binding (tested: 1 mg/mL)”.

Source: article PMC12202928, “Bidirectional interdomain crosstalk in a Porphyromonas gingivalis chimeric enzyme coordinates catalytic synergy for aromatic amino acid biosynthesis” (Frontiers in Microbiology, 2025)
